# From publication PMC7819943, “Rice protein-binding microarrays: a tool to detect cis-acting elements near promoter regions in rice”
# Some of the results follow.
# Molecular target: T1, OsSMF1 (Oryza sativa, UniProt Q6ZLB0 1-436)
# T1 sequence: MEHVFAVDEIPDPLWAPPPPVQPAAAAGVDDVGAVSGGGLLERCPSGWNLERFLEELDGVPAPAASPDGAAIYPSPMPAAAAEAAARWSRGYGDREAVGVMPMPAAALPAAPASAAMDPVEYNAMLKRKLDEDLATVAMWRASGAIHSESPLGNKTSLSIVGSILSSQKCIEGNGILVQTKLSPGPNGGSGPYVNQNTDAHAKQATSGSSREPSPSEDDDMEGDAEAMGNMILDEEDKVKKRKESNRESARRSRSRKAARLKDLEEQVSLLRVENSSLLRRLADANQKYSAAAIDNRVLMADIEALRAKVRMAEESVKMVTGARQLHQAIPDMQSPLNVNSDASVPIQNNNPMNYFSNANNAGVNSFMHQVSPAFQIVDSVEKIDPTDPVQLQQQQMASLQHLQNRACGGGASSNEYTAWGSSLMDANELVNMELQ
# Experiment: protein-binding microarray (RPBM); PBS, 2% BSA, 51.3 ng/ul salmon testes DNA, 50 uM zinc acetate, 200 nM TF, 25 C, 1 h; high values mean tight binding
# Settings: protein: recombinant; tags: N-terminal polyhistidine and DsRed monomer fusion (pET32a); chain copies: 2; label: CyDye5-dUTP incorporated in the synthesized complementary strand; 3' TTTTT single-stranded linker to array surface; dsDNA, one strand shown
# Procedure, shortened: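 The binding signal is fluorescence intensity per array feature (arbitrary units). Readings came from an Axon 4000B scanner after a washed, 2% BSA-blocked, double-stranded custom Agilent array had been incubated for 1 h at 25 °C with 200 nM protein and 50 µM zinc acetate. The protein was a Ni–NTA-purified transcription factor fused N-terminally to polyhistidine and DsRed, expressed in E. coli BL21-CodonPlus.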
row,Sequence,binding signal
1,CACGAGTTACTGGTGACGTGTGTCACATCATCTATAAGAACGGAGTCACCTAGTGCAG,7740 fluorescence intensity (a.u.)
2,CGGCTTGAAAATATTTTACCACGTAAGGGAAAACGAAAACCGGAGTCACCTAGTGCAG,3750 fluorescence intensity (a.u.)
3,CAAGGGGCAAGCTCCACATCGAGCTTGCTGCCAACCTTCCCGGAGTCACCTAGTGCAG,3400 fluorescence intensity (a.u.)
4,GAGTGGGGCTGAAACATGCGCACGACAGCGGGCCTCATGGCGGAGTCACCTAGTGCAG,3240 fluorescence intensity (a.u.)
5,ACCACCAGCCCACCCCGATGTGTAATCACTGTGCCAGAGTCGGAGTCACCTAGTGCAG,3640 fluorescence intensity (a.u.)
6,CAGCACGTATGATAGTACTATTTTGCAACTTACAACATAACGGAGTCACCTAGTGCAG,7550 fluorescence intensity (a.u.)
7,TGTCCATCTCCACGACACGTACACAATTACACAAACGGTCCGGAGTCACCTAGTGCAG,5090 fluorescence intensity (a.u.)
8,GAGCGTCGCTATCTCATCCAACGGTCACTTGGTGCCCCTCCGGAGTCACCTAGTGCAG,3140 fluorescence intensity (a.u.)
9,TCTACCGGAATACTGTTACGCTGACGTAGACATGAGTAAGCGGAGTCACCTAGTGCAG,8170 fluorescence intensity (a.u.)
10,GGTGAAAGTGAGGAAGCCGTGTGAGTGACGTGTCGACGCACGGAGTCACCTAGTGCAG,14700 fluorescence intensity (a.u.)
11,CTCTGCTTACATAAAAGCAAAAGCAAAAGTAAACACACACCGGAGTCACCTAGTGCAG,3490 fluorescence intensity (a.u.)
12,AAGATGAAACCGAGTCGGCACCGATACGCTACGCGCGCACCGGAGTCACCTAGTGCAG,3670 fluorescence intensity (a.u.)
13,CCTCCTGTCAGACTGTCGTCAGTGTCACACTGTCACTGTCCGGAGTCACCTAGTGCAG,6520 fluorescence intensity (a.u.)
14,GGCGCCCGCCTGCTCCCGGGCCGCTGCCGCCGCGTCGCCCCGGAGTCACCTAGTGCAG,27500 fluorescence intensity (a.u.)
15,CAGGCTCGATGGCATACGCTATCTCAGGCTTTGCTACCATCGGAGTCACCTAGTGCAG,3690 fluorescence intensity (a.u.)
16,GGTTGTCTTTGCATGACTGGCCGGCTGGGTCCCCGGCCTTCGGAGTCACCTAGTGCAG,4230 fluorescence intensity (a.u.)
17,ACGATGATACAGACCAGTGGATGAACACCACGTCGTCCGTCGGAGTCACCTAGTGCAG,6350 fluorescence intensity (a.u.)
18,CATGGGAGAGTAGATACCGGTGACAAGTCATCGAAGTGTACGGAGTCACCTAGTGCAG,3850 fluorescence intensity (a.u.)
19,CACGTGGGACACCGCTCCCCGGCGCTCGCCACGTGGACGCCGGAGTCACCTAGTGCAG,21700 fluorescence intensity (a.u.)
20,CCACGACTGGAAGTAGGAAGGTAAGAGAGAACATACGGGGCGGAGTCACCTAGTGCAG,9690 fluorescence intensity (a.u.)
21,CGCCGCGCGTGCCACGTTTACTCCCGTGGGCCCCGCAACGCGGAGTCACCTAGTGCAG,4880 fluorescence intensity (a.u.)
22,AAACCGACCCGTGAGCCAAGCCGCCGAGTCACTGCTCTCGCGGAGTCACCTAGTGCAG,5710 fluorescence intensity (a.u.)
23,TATCCAATGGAACTAGGTGATGATGGATGAATGTAGGATGCGGAGTCACCTAGTGCAG,4200 fluorescence intensity (a.u.)
24,TCCAATCTTACTACTTTAGAGGGTTTGCACGAAGATATTACGGAGTCACCTAGTGCAG,3460 fluorescence intensity (a.u.)
25,TTAGCGCAGTATTTAGGTAGGAGAAGGATGGTAGACACGTCGGAGTCACCTAGTGCAG,4060 fluorescence intensity (a.u.)
26,GGCTCAGATTGCCTCCGCGTCAGGCCGCATCACTGGTAGGCGGAGTCACCTAGTGCAG,4170 fluorescence intensity (a.u.)
27,ACTGGCCGCTCCGGCCACGCGTCCGCCGGCGATTGGCCGCCGGAGTCACCTAGTGCAG,3270 fluorescence intensity (a.u.)

row,Sequence,binding signal
1,AACGTCCCACGTGACACCCTATATAATACCCGATGTGACACGGAGTCACCTAGTGCAG,5780 fluorescence intensity (a.u.)
2,GTAGTATGTGTAGGTGATAACAGTAAGCTTGGGCCACGTACGGAGTCACCTAGTGCAG,4060 fluorescence intensity (a.u.)
3,ACATATCAAGATGTGGGTATTCTAGCTTCAAAGACTGATTCGGAGTCACCTAGTGCAG,4140 fluorescence intensity (a.u.)
4,CAGTTCATCGACGTGGCGTACCGGGTCAAGGTGTCGACCACGGAGTCACCTAGTGCAG,9770 fluorescence intensity (a.u.)
5,GGAATTCCCAGCCCATGTCGCCACCGCTTTAGGCGCAGCCCGGAGTCACCTAGTGCAG,6510 fluorescence intensity (a.u.)
6,CCTCAGGCCGCCTCTCGTGCTGTACACGTAGGATAGCTACCGGAGTCACCTAGTGCAG,46200 fluorescence intensity (a.u.)
7,AAGAGAGTACACCACATGCCTACGCAGCCTCATGTCCAGTCGGAGTCACCTAGTGCAG,3440 fluorescence intensity (a.u.)
8,GTGAGTGATCACGCACGTCAGACTGATCAAATCATGATGTCGGAGTCACCTAGTGCAG,6710 fluorescence intensity (a.u.)
9,GCTACTAGTAGGTACCAGCCACATCGACAATAAAAGCTCCCGGAGTCACCTAGTGCAG,30400 fluorescence intensity (a.u.)
10,CTTACACGGTCACGAGTTCGCAGCCATCTTCGCCATGATCCGGAGTCACCTAGTGCAG,3290 fluorescence intensity (a.u.)
11,GCTTTGGAACTCCTTTAGATTATAATCCAACTCAATTCAACGGAGTCACCTAGTGCAG,4590 fluorescence intensity (a.u.)
12,GAAAAGGCCCAATTTATCCAGGCTATACATTGGGCTTTTGCGGAGTCACCTAGTGCAG,3190 fluorescence intensity (a.u.)
13,CAAACTCGATCGAATCTGCCAGCTCACTCATGAGCTTAAGCGGAGTCACCTAGTGCAG,8450 fluorescence intensity (a.u.)
14,GGTGCTCACGCGTTGCTTTGTCCCGCGCTGCCACCTCCTCCGGAGTCACCTAGTGCAG,3350 fluorescence intensity (a.u.)
15,AGTGAAAGCATTGAACTACCAGTTGCGTCAGGAAATGTATCGGAGTCACCTAGTGCAG,4160 fluorescence intensity (a.u.)
16,TTCGCCATGATCACAGCCACGTACACAACAAACGCGGCCTCGGAGTCACCTAGTGCAG,5800 fluorescence intensity (a.u.)
17,CGCGACTTGTCGCATTTGAACGTGTCGAGTCACAATTGTGCGGAGTCACCTAGTGCAG,32600 fluorescence intensity (a.u.)
18,CGTCGTAGTCGCGGCGGGCGCGGGAGGTGGTCTCCGGCGGCGGAGTCACCTAGTGCAG,24400 fluorescence intensity (a.u.)
19,ACAGCAAACAAACGTAACACCTTAACACGTCATGCAGTTTCGGAGTCACCTAGTGCAG,15100 fluorescence intensity (a.u.)
20,GACAGGCTCAGTGTCACATCCCTCTAAAATCTGTTATATTCGGAGTCACCTAGTGCAG,3340 fluorescence intensity (a.u.)
21,GTGAGTTCATCATATGGCGTGTTACGTGTACATGTGTCTACGGAGTCACCTAGTGCAG,6410 fluorescence intensity (a.u.)
22,CCTCTCTCATTATCCTCTCGCGCTCGAGTGTGTGTGGCGACGGAGTCACCTAGTGCAG,3260 fluorescence intensity (a.u.)
23,CAAGTAGTACAAAAGATTACCGTGGCGTTAGCACGGGCATCGGAGTCACCTAGTGCAG,3660 fluorescence intensity (a.u.)
24,ACACTAGTAACAAAACTTGGCAATTTGGCATTTGGCATTTCGGAGTCACCTAGTGCAG,3300 fluorescence intensity (a.u.)
25,GTTTATTTGGGCCTGATTGGCACAGATGGTAGTGCCATGTCGGAGTCACCTAGTGCAG,3500 fluorescence intensity (a.u.)
26,AGGTACGTAAATTTTATATATTCCATATGAGCTCTAAATACGGAGTCACCTAGTGCAG,3580 fluorescence intensity (a.u.)
27,ACCACAAGGCGTGAGCGAGTGACACGTGGCGCGTTGCATCCGGAGTCACCTAGTGCAG,28400 fluorescence intensity (a.u.)

# As entered above.
# In binding signal, TTCGCCATGATCACAGCCACGTACACAACAAACGCGGCCTCGGAGTCACCTAGTGCAG shows 5800 fluorescence intensity (a.u.)
# In binding signal, ACATATCAAGATGTGGGTATTCTAGCTTCAAAGACTGATTCGGAGTCACCTAGTGCAG shows 4140 fluorescence intensity (a.u.)
# In binding signal, AAGAGAGTACACCACATGCCTACGCAGCCTCATGTCCAGTCGGAGTCACCTAGTGCAG shows 3440 fluorescence intensity (a.u.)
